T. brucei: 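Whole-parasite assay of Trypanosoma brucei over 72 hours; the read-out is not stated. Compounds at 30 µM. Higher reads as stronger inhibition (inferred: compounds with an IC50 in retests scored well above the rest). Values scatter widely below zero; nearly all retest evidence comes from the higher of the two concentrations used. Of about 64,000 compounds tested this way, about 940 (1.5%) reached 50% or more in at least one test.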
Toxoplasma: 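Assay of Toxoplasma gondii numbers, read through their beta-galactosidase reporter with a colour substrate. Concentration: 10 µM. The record gives no direction; the compounds picked for IC50 retests had high values, so higher reads as fewer parasites. About 67,000 compounds were tested under these conditions; 0.38% (about 260) showed 50% or more at least once.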
Leishmania in macrophages: 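Cell assay of Leishmania donovani living inside macrophages; the read-out is not stated. Compounds at 30 µM. The record gives no direction; compounds that gave an IC50 in retests scored well above the rest, so higher reads as stronger inhibition. Size under these conditions: about 69,000 compounds, about 1,000 of them at 50% or above in at least one test.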

Results are given as percent effect.
The controls that fix the scale are not given in the record; negative values are as filed.
This is an unselected part of the compounds tested.
Two or more numbers in one place are separate tests of the same structure; such repeats can differ widely.
A dash means the value is not listed here; it may have been measured.

structure	T. brucei	Toxoplasma	Leishmania in macrophages
CN1CCN(C(=O)c2cn(Cc3ccccc3)c3ncccc23)CC1	2.485	-6.48	29.39
CC(C)CCN(C)C(=O)c1nc(S(C)(=O)=O)n2ccccc12	2.284	12.11	-3.03
Cc1ccc(C)n1-c1c(C(=O)NCC(C)N(C)C)cnn1C (centres unmarked)	-22.5	-6.633	14.42 & 6.159
CC(C)c1ocnc1C(=O)NC(c1nnc2n1CCNCC2)C(C)C (centres unmarked)	-25.82	11.98	21.67
Cc1ccc(-c2nnc(NC(=O)c3ccn(C)c(=O)c3)[nH]2)s1	-10.8	2.126	-19.37
CC(C)OCCCNC(=O)NCc1cccc(-n2ccnc2)c1	-14.45	3.015	21.13 & 0.2706
COc1ccc(NC(=O)N2CCCCCC2c2ccncc2)cn1 (centres unmarked)	-0.959	4.632	-13.27
Cc1cc(C)n(Cc2cc(C(=O)N3CCCC3c3nccs3)n[nH]2)n1 (centres unmarked)	-11.9	-	8.214
[H][C@]12CCC[C@@]1(COCC(=O)N1CCCC1)CN(Cc1cc(C)on1)C2	-12.77	8.987	18.31
COc1ccc(CN2CCN(C3CCc4ccccc4C3)CC2)cc1O (centres unmarked)	7.012	3.797	26.08
[H][C@@]12CCN(C(=O)c3cccn3C)C[C@@]1([H])O[C@@H](c1nc(C)no1)C2	-57.82	-36.45	-15.86
O=C(O)C(F)(F)F.[H][C@@]12CCN(C3CCOCC3)[C@]1([H])CC[C@@H](C(=O)NCc1cccs1)O2	-5.71	0.5753	4.017
Cc1cnn(CC2CCCCN2CC(=O)Nc2c(C)n[nH]c2C)c1 (centres unmarked)	13.38	7.143	34.96
CCN(Cc1ccc2cccc(O)c2n1)CC1CCCO1 (centres unmarked)	-65.89	15.94	11.85
CCc1nc(N2CCC3(CCC(=O)N(Cc4ccncc4)C3)CC2)no1	-22.36	8.362	20.63
Clc1cncc(N2CCN(Cc3ccon3)CC2)n1	-37.57	23.41	-18.85
Cc1cc(C(N)=O)ccc1NC(=O)c1nc(N2CCCC2)ncc1Cl	-28.68	-6.216	8.168
COc1cc(OC)nc(N2CCC3(CC2)OCCCC3O)n1 (centres unmarked)	26.3	5.096	12.31
[H][C@@]12CN(Cc3cccnc3)CCO[C@]1([H])CN(C(=O)c1cnccn1)C2	16.56	-6.243	-11.77
c1ccc2oc(CCCN3CCCC3Cn3cncn3)nc2c1 (centres unmarked)	-4.411	5.708	18.81
CC(Cn1cccn1)NCc1nc(-c2cccs2)no1 (centres unmarked)	28.29	-7.972	31.74
O=C1NCCN1C1CCN(CC(O)c2ccccc2F)CC1 (centres unmarked)	-24.65	10.89	29
Cc1nc(N)cc(N2CCCC(COc3cccc(F)c3)C2)n1 (centres unmarked)	-7.594	16.34	87.26
[H][C@@]12CN(c3nc(C)cc(C)n3)C[C@]1([H])N(CCc1cccc(Cl)c1)C(=O)O2	5.483	4.909	18.79
Cc1cncc(C2CCN(C(=O)c3ccc(-n4cccn4)nc3)CC2)n1	-	11.18	0.2341
Cc1noc(C)c1CNc1cccc(C(=O)N(C)c2ccccc2)c1	-96.29	-10.85	16.09
Oc1c(F)cc(CNc2cccc(-c3nnc[nH]3)c2)cc1F	-51.33	3.885	16.51
CN(CCc1ccccn1)C(=O)c1ccccc1F	-8.198	1.818	5.037
CC(C)N1CCc2c(c(COc3cncnc3)nn2CC2CC2)C1.O=C(O)C(F)(F)F	-35.31	-4.283	18.39 & 8.533
CN1C[C@@H](C(=O)NC(C)(C)C)[C@@]2(COc3ccc(F)cc3C2=O)C1	-22.56	3.575	8.824
O=C(CCc1ccsc1)Nc1ccnn1C1CCS(=O)(=O)C1 (centres unmarked)	0.8897	-2.386	-8.046
CN1CCC(c2nccnc2Nc2cnccn2)CC1	-	-	-7.958
CN(C)c1cc(C2CCCNC2)ccn1.Cl.Cl (centres unmarked)	13.53	-17.41	18.26
CCn1nc(CC(C)C)cc1C(=O)N1CCCC(C#N)C1 (centres unmarked)	-29.55	-39.2	-15.08
COc1cc(S(=O)(=O)N2CCc3ccccc32)cc(C(=O)O)c1OC	13.6	-22.61	25.92
Cc1c(OCC(=O)NCc2ccccc2)c(=O)ccn1C	-30.42	2.967	17.53
COCc1cccc(CNCc2c(C(C)C)nn(C)c2N(C)C)c1	-	0.3662	30.66
COCCN1C[C@@H](C(=O)O)[C@H](c2ccccc2C)C1	-47.26	9.174	-27.25
CC(=O)NCCCSC1CCCN(c2ccccc2F)C1=O (centres unmarked)	-42.63	7.487	22.59
CCc1csc(CCNC(=O)C2CC(=O)N(C(C)C)C2)n1 (centres unmarked)	-60.29	-3.959	2.789

Repeated from the top, 4 entries:

structure	T. brucei	Toxoplasma	Leishmania in macrophages
CN1CCN(C(=O)c2cn(Cc3ccccc3)c3ncccc23)CC1	2.485	-6.48	29.39
CC(C)CCN(C)C(=O)c1nc(S(C)(=O)=O)n2ccccc12	2.284	12.11	-3.03
Cc1ccc(C)n1-c1c(C(=O)NCC(C)N(C)C)cnn1C (centres unmarked)	-22.5	-6.633	14.42 & 6.159
CC(C)c1ocnc1C(=O)NC(c1nnc2n1CCNCC2)C(C)C (centres unmarked)	-25.82	11.98	21.67

Data taken from ChEMBL document CHEMBL3988442, “University of Dundee, Small-Polar-MMV Screening Library” (2021).